Data taken from patent publication US8653023B1, “Dual beneficial effect of dopamine enhancing and neuroprotective actions of PKC delta inhibitors for treatment of Parkinson's disease” (Iowa State University Research Foundation, Inc., priority 2006, dated 2014).
Some results were stated once for a whole list of compounds, not compound by compound.

Tested on: tyrosine hydroxylase (TH)
Test: TH phosphorylation in N27 cells (Western blot, immunofluorescence)
Type: cell-based, rat
Settings: rottlerin vs DMSO, PKCδ-DN vs LacZ
Protocol: PC12 cells, differentiated N27 dopaminergic cells and primary mesencephalic neurons were exposed to 1-10 μM rottlerin for the duration of the experiment. DMSO (0.01%) was used as vehicle control. PKCδ-DN- and Lac Z-expressing N27 cells were only treated with 0.01% DMSO. […] Untreated or vehicle treated cells were used as control samples.
Cell and brain lysates containing equal amounts of protein were loaded in each lane and separated on a 10-12% SDS-PAGE gel as described previously (Kaul et al., 2003). After the separation, proteins were transferred to nitrocellulose membrane, and nonspecific binding sites were blocked by treating with 5% nonfat dry milk powder. […] Secondary antibody-bound proteins were detected using Amersham's ECL chemiluminescence kit. […] Western blot images were captured with a Kodak 2000 MM imaging system and data were analyzed using 1D Kodak imaging analysis software.
Immunostaining of PKCδ, TH, Ser40 P-TH and Ser31 P-TH was performed in PC12, N27 and primary mesencephalic neurons. […] Then the coverslips containing stained cells were washed with PBS, mounted on a slide, and viewed under a Nikon inverted fluorescence microscope (Model TE-2000U); images were captured with a SPOT digital camera (Diagnostic Instruments, Sterling Heights, Mich.).

CC(=O)c1c(O)c(C)c(O)c(Cc2c(O)c3c(c(C(=O)/C=C/c4ccccc4)c2O)OC(C)(C)C=C3)c1O [rottlerin]
phospho TH ser40 (60 kDa) band, densitometry, increase: 3-4 fold
